Assay results published in paper PMC5597579.
No constants are given. Whether binding was seen depends on the method and setting. In cells and extracts the contact can be indirect. Some binding calls cover weakened binding; strength is not graded here. Sequences can lack the tags named with a protein.

Sequences of proteins named here, by UniProt entry; tags and fusion partners are left off.
UniProt Q9Y812: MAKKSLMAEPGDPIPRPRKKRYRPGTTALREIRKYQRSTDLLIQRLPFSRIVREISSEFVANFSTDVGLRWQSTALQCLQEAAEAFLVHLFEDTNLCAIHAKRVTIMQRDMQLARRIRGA

Molecular target: T1, Ies6-5×Flag (Schizosaccharomyces pombe) (UniProt Q9UTE8)
T1 sequence: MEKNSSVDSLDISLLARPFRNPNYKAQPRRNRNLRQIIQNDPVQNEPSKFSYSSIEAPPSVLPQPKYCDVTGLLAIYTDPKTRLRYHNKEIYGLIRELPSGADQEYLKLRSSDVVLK
Test: co-IP; S. pombe log-phase cell extracts in NP40 lysis buffer (1% NP40, 200 mM NaCl, 2 mM EDTA, phosphate); immunoprecipitation with anti-Flag (M2)-agarose of Ies6-5×Flag; western blot with anti-Flag and anti-CENP-A^Cnp1; CENP-A^Cnp1 overexpressed

centromere protein A (CENP-A^Cnp1) (from UniProt Q9Y812 1-120)
binding: binds
